Data from PMC9080189.
No constants are given. Whether binding was seen depends on the method and setting. In cells and extracts the contact can be indirect. Some binding calls cover weakened binding; strength is not graded here. One block for each molecule: values may come before it.

Sequences of proteins named here, by UniProt entry; tags and fusion partners are left off. A change or cut given only in a name is not applied to a line headed by its entry.
UniProt O54785: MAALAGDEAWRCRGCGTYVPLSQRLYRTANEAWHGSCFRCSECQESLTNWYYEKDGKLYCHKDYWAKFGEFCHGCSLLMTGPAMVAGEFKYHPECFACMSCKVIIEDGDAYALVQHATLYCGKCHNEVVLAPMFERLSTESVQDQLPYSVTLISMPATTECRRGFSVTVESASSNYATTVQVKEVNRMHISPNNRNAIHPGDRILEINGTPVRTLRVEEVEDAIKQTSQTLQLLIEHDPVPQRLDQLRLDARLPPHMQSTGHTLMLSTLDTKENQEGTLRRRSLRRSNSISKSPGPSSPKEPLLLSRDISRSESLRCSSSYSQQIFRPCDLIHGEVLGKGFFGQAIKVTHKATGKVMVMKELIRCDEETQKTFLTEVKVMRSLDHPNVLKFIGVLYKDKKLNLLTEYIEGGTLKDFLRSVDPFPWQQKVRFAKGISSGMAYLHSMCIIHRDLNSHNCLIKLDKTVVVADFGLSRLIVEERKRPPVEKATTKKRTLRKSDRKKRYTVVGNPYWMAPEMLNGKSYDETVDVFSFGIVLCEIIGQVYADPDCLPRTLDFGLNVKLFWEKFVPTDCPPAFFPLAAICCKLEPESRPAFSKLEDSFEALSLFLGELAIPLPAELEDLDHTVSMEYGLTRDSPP
UniProt P46938: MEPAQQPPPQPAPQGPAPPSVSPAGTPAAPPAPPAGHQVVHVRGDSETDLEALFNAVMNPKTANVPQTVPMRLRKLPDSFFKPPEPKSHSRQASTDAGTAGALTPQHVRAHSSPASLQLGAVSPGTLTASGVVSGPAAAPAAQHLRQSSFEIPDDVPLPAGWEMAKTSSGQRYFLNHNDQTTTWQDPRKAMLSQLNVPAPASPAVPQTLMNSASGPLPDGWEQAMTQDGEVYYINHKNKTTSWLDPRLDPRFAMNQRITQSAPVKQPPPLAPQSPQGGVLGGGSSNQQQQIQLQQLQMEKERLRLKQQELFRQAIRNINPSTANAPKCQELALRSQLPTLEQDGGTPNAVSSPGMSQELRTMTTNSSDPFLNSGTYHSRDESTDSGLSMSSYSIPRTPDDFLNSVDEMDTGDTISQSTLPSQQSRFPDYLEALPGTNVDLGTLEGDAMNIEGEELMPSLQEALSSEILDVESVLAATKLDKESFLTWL

What was measured:
[1] = target: T1, full-length CDX2 (expressed in SH-SY5Y cells) (mouse) (UniProt P43241); assay: co-IP; SH-SY5Y cells transfected with full-length CDX2 or ΔCDX2 along with full-length YAP, 48 h; IP with anti-FLAG antibody, blot with anti-YAP
T1 sequence: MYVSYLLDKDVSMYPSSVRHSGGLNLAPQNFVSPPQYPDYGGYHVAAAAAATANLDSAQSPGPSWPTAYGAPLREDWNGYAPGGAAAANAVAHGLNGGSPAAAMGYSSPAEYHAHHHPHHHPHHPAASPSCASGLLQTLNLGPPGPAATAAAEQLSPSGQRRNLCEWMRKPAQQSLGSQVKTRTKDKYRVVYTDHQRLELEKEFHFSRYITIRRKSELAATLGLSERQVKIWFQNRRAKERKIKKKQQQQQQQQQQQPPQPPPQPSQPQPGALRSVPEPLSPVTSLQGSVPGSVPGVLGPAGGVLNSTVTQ

[2] = target: LIMK2 (LIM domain kinase 2), endogenous in trophoblast cells (mouse (endogenous in TSCs and differentiated trophoblast cells)) (UniProt O54785); assay: co-IP; reverse co-IP, endogenous proteins of trophoblast cells; IP with anti-LIMK2 antibody, western blot with anti-LATS1
[3] = target: YAP (Yes-associated protein), endogenous in trophoblast stem cells (mouse (endogenous in TSCs)) (UniProt P46938); assay: co-IP; endogenous proteins, TSC lysate (250 μg, overnight at 4 °C); IP with anti-YAP antibody, western blot with anti-CDX2; isotype matched antibody as negative control
[4] = target: FLAG-tagged full-length YAP (expressed in TSCs) (mouse) (UniProt P46938); assay: co-IP; lysates of TSCs transfected with FLAG-tagged full-length YAP or YAP deletion constructs; IP with anti-FLAG antibody, immunoblot with anti-CDX2 (endogenous CDX2); isotype matched antibody as negative control

binding [1]: binds
Molecule: full-length YAP (expressed in SH-SY5Y cells) (from UniProt P46938-1 1-488)

binding [2]: binds
B1: LATS1 (Large tumor suppressor kinase 1), endogenous in trophoblast cells (protein, UniProt Q8BYR2 1-1129)
chain: MKRGEKPEGYRQMRPKTFPASNYPGSSRQMLQEIRESLRNLSKPSDASKAEHNLNKMSTEDPRQVRNPPKFGTHHKALQEIRNSLLPFANETSSSRSPSEVNPQMFQDLQAAGFDEDMVIQALQKTNNRSIEAAVEFISKMSYQDPRREQMSAAAARPINATMKPGNVQHSINRKQSWKGSKESLVPQRHGPSLGENVVYRSESPNSQADVGRPLSGSGIAAFAQAHPSNGQRVNPPPPPQVRSVTPPPPPRGQTPPPRGTTPPPPSWEPSSQTKRYSGNMEYVISRISPVPPGAWQEGYPPPPLTTSPMNPPSQAQRAISSVPVGRQPIIMQSTSKFNFTPGRPGVQNGGGQSDFIVHQNVPTGSVTRQPPPPYPLTPANGQSPSALQTGASAAPPSFANGNVPQSMMVPNRNSHNMELYNINVPGLQTAWPQSSSAPAQSSPSGGHEIPTWQPNIPVRSNSFNNPLGSRASHSANSQPSATTVTAITPAPIQQPVKSMRVLKPELQTALAPTHPSWMPQPVQTVQPTPFSEGTASSVPVIPPVAEAPSYQGPPPPYPKHLLHQNPSVPPYESVSKPCKDEQPSLPKEDDSEKSADSGDSGDKEKKQITTSPITVRKNKKDEERRESRIQSYSPQAFKFFMEQHVENVLKSHQQRLHRKKQLENEMMRVGLSQDAQDQMRKMLCQKESNYIRLKRAKMDKSMFVKIKTLGIGAFGEVCLARKVDTKALYATKTLRKKDVLLRNQVAHVKAERDILAEADNEWVVRLYYSFQDKDNLYFVMDYIPGGDMMSLLIRMGIFPENLARFYIAELTCAVESVHKMGFIHRDIKPDNILIDRDGHIKLTDFGLCTGFRWTHDSKYYQSGDHPRQDSMDFSNEWGDPSNCRCGDRLKPLERRAARQHQRCLAHSLVGTPNYIAPEVLLRTGYTQLCDWWSVGVILFEMLVGQPPFLAQTPLETQMKVINWQTSLHIPPQAKLSPEASDLIIKLCRGPEDRLGKNGADEIKAHPFFKTIDFSSDLRQQSASYIPKITHPTDTSNFDPVDPDKLWSDGSEEENISDTLNGWYKNGKHPEHAFYEFTFRRFFDDNGYPYNYPKPIEYEYIHSQGSEQQSDEDDQHTSSDGNNRDLVYV

binding [3]: binds
binding [4]: binds
B2: CDX2 (Caudal type homeobox 2), endogenous in trophoblast stem cells (protein, UniProt P43241 1-311)
chain: MYVSYLLDKDVSMYPSSVRHSGGLNLAPQNFVSPPQYPDYGGYHVAAAAAATANLDSAQSPGPSWPTAYGAPLREDWNGYAPGGAAAANAVAHGLNGGSPAAAMGYSSPAEYHAHHHPHHHPHHPAASPSCASGLLQTLNLGPPGPAATAAAEQLSPSGQRRNLCEWMRKPAQQSLGSQVKTRTKDKYRVVYTDHQRLELEKEFHFSRYITIRRKSELAATLGLSERQVKIWFQNRRAKERKIKKKQQQQQQQQQQQPPQPPPQPSQPQPGALRSVPEPLSPVTSLQGSVPGSVPGVLGPAGGVLNSTVTQ
